Changes are numbered by the printed parent chain.
B1: 12Y-2: wild type shark IgNAR single variable domain antibody, FLAG × 2 tag (protein)
VHH: AWVDQTPRTATKETGESLTINCVLRDASFELKDTGWYRTKLGSTNEQSISIGGRYVETVNKGSKSFSLRISDLRVEDSGTYKCQAFYSLPLGDYNYSLLFRGEKGAGTALTVKAAADYKDDDDKAADYKDDDDK
modifications: FLAG x2 tag
notes: wild type shark IgNAR single variable domain antibody, FLAG × 2 tag
B2: 37D-4: Aβ-IgNAR variant with Leu34Pro ("Wurth") mutation (protein)
VHH: AWVDQTPRTATKETGESLTINCVLRDASFELKDTGWYRTKLGSTNEQSISIGGRYVETVNKGSKSFSLRISDLRVEDSGTYKCQAFYVFFAEDVGSNKGAIIGPMVGGVVIGGEKGAGTALTVKAAADYKDDDDKAADYKDDDDK
B3: Aβ-IgNAR-G1: fusion of amyloid β-peptide Aβ(18-41) within CDR3 loop of IgNAR 12Y-2, FLAG × 2 tag (protein)
VHH: B2 VHH with P104L
modifications: FLAG x2 tag
notes: fusion of amyloid β-peptide Aβ(18-41) within CDR3 loop of IgNAR 12Y-2, FLAG × 2 tag

Assay: Western blot / SDS-PAGE assessment of dimerisation and tetramerisation of recombinant Aβ-IgNAR proteins
Details: for dimerization by Western blot: recombinant protein from E. coli periplasmic space

Molecule	dimerization by Western blot	resistance of dimer to β-mercaptoethanol treatment (upon affinity purification)	tetrameric species by SDS-PAGE (affinity-purified, absence of heating/reducing agent)
B1	non-dimerizing		
B2	non-dimerizing	not resistant to β-mercaptoethanol treatment	
B3			formation of tetrameric (arrowed) species

— patent publication US8524863B2, “Amyloid-beta peptide crystal structure” (Commonwealth Scientific and Industrial Research Organisation, priority 2008, dated 2013)
